Results deposited as PubChem BioAssay AID743121 (NCATS, 2013)

- Test: 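Partners whose loss is lethal together with topoisomerase I blockade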 (primary screen)
- Cells: MDA-MB-231 cells, a human breast cancer line
- Reagent: single siRNA against human genes, 20 nM siRNA (0.8 pmol per well)
- Duration: 120 h (drug added 48 h after transfection, read 72 h later)
- Challenge: camptothecin 20 nM (about EC30) for 72 h; vehicle 0.1% DMSO in parallel plates
- Detection: 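CellTiter-Glo ATP signal, scaled to control siRNA as percent viability; sensitisation given as log2 of untreated divided by camptothecin-treated viability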
- Reading the numbers: log2 vehicle/camptothecin viability: higher = stronger sensitisation to camptothecin
- Active means: 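Active genes have an RSA gene-level p-value below 0.001, computed from the ratios of their separate siRNAs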
Shown is one part, drawn at random, of about 26,000 reagents. Of all reagents, 167 (0.63%) are marked active. 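Calls are per gene from RSA p-values that are not deposited; an individual active-marked siRNA can sensitise only weakly.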 Reagents against one gene are numbered here. Further read-outs or replicates are left out here.

With knock-down of KMT2E #1, the screen gave log2 vehicle/camptothecin viability -0.00313; inactive.
Knock-down of KMT2E #2 resulted in: log2 vehicle/camptothecin viability -0.812; inactive.
After knock-down of KMT2E #3, the screen gave log2 vehicle/camptothecin viability 0.304; inactive.
Silencing of GPR107 #1 came out at: log2 vehicle/camptothecin viability -0.319; inactive.
Against GPR107 #2, the entry reads log2 vehicle/camptothecin viability -0.247; inactive.
Silencing of GPR107 #3 gave: log2 vehicle/camptothecin viability -0.286; inactive.
For GPR107 #4, the entry reads log2 vehicle/camptothecin viability -0.0691; inactive.
With knock-down of SGK2 #1, the record shows log2 vehicle/camptothecin viability -0.187; inactive.
SGK2 #2 showed log2 vehicle/camptothecin viability -0.87; inactive.
Depletion of SGK2 #3 resulted in: log2 vehicle/camptothecin viability 0.0475; inactive.
Depletion of SGK2 #4 came out at: log2 vehicle/camptothecin viability 0.0547; inactive.
For OR52B4 #1, the entry reads log2 vehicle/camptothecin viability 0.328; inactive.
After knock-down of OR52B4 #2, the record shows log2 vehicle/camptothecin viability -0.42; inactive.
With knock-down of OR52B4 #3 the results were log2 vehicle/camptothecin viability -0.369; inactive.
Depletion of OR52B4 #4 came out at: log2 vehicle/camptothecin viability -0.232; inactive.

Laid out differently: results already given.
target gene	siRNA no.	log2 vehicle/camptothecin viability	call
SGK2	1	-0.187	inactive
SGK2	2	-0.87	inactive
